The text below walks through data of article PMC3949306.

The chains behind the UniProt entries cited, without tags or fusion partners. Where a name states a change or a piece, a line headed by the entry shows the natural chain unless it says otherwise.
UniProt Q15173: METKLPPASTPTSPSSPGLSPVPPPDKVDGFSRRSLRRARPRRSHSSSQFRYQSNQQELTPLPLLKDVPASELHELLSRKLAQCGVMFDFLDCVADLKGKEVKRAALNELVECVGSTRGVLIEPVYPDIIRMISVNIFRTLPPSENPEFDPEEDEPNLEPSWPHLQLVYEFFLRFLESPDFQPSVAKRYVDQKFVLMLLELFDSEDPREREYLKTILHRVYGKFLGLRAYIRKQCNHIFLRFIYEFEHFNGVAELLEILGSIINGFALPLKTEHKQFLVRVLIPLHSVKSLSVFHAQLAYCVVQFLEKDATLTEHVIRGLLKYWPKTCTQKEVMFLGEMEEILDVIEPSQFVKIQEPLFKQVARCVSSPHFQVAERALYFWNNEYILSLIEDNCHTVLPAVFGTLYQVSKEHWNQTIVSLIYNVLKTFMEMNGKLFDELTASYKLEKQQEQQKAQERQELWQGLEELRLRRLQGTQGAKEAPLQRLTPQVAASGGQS
UniProt P67775: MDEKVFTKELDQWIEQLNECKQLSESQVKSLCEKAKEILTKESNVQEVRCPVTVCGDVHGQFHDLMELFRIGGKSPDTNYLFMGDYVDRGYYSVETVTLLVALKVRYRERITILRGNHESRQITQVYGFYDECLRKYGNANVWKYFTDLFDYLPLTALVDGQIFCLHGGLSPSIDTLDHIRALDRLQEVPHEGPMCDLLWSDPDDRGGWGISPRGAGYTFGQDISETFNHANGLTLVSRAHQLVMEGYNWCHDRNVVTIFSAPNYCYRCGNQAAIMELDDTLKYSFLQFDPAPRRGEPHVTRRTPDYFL

One experiment has as its target FLAG-tagged B56β (UniProt Q15173). Put plainly: co-IP; FLAG immune complexes (FLAG affinity beads) from lysates of HEK293 cells transfected with FLAG-tagged regulatory subunits; silver-stained SDS-PAGE and Western blot.
Another experiment deals with T1, FLAG-tagged B55δ (UniProt Q66LE6).
T1 sequence: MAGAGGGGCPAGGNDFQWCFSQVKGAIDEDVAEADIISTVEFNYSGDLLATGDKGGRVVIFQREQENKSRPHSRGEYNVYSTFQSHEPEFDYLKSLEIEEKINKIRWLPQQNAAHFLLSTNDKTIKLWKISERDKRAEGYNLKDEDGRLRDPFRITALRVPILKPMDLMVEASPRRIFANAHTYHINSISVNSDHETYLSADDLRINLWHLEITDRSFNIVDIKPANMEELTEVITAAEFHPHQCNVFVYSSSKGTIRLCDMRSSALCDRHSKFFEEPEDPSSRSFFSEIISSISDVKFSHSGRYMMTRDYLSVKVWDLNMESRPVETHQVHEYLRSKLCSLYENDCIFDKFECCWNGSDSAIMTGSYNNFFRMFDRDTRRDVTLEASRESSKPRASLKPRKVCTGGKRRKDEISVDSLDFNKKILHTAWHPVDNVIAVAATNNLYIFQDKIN
The experiment is described as above.

No constants are given. Whether binding was seen depends on the method and setting. Binding seen in cells or lysates may run through a third protein. Binding calls can cover weak binding; strength is not graded here. For part of these data: Sequences can lack the tags named with a protein.

For “PP2A C (catalytic) subunit (from UniProt P67775)”, the binding result in the experiment with FLAG-tagged B56β and in the experiment with FLAG-tagged B55δ was “binds” each time. On to “PP2A A (structural) subunit (human (endogenous in HEK293))”, for which the binding result with FLAG-tagged B55δ is on record as “binds”.
